This is an account of results in US20130004416A1.

The chains behind the UniProt entries cited, without tags or fusion partners.
UniProt P11836: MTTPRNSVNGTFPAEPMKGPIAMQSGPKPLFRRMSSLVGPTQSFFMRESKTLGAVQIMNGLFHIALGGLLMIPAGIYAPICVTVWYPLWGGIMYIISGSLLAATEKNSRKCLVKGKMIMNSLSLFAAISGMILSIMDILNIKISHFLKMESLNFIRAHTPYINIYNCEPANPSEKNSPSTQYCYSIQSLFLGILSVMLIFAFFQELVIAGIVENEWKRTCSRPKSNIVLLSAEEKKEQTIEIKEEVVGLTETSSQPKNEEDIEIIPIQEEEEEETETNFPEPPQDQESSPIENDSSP

These are yes or no findings as the source states them, for the method shown. Some entries that bind do so weakly or less than the wild type.

This assay deals with human CD20 on Raji B cells (human) (UniProt P11836). The experiment in a line: staining of Raji B cells, FITC-labeled secondary antibody.

B1: murine anti-human-CD20 mAb clone 5F1 (antibody, V domains shown)
VH: QVQLRQPGAELVKPGASVKMSCKASGYTFTSYNMHWVKQTPGQGLEWIGAIYPGNGDTSYNQKFKGKATLTADKSSSTAYMQLSSLTSEDSAVYYCARSHYGSNYVDYFDYWGQGTTLTVSS
VL: QIVLSQSPAILSASPGEKVTMTCRASSSLSFMHWYQQKPGSSPKPWIYATSNLASGVPARFSGSGSGTSYSLTISRVEAEDAATYFCHQWSSNPLTFGAGTKLELKR
B1: the binding entry is “binds”.
